Measurements reported in PubChem BioAssay AID1259290 (Sanger Institute, 2017)
This is one part, drawn at random, of 794 reagents tested. In the full data, 9 (1.1%) are marked active. 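Calls rest on knock-down alone, not drug synergy; synergy above 0.15 was grouped apart and does not affect calls.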 A number with no mark means an inactive call. Not all columns of the deposit are shown. Reagent sequences are not shown. The record does not give: the amount of reagent, the time to read-out.

Assay: 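siRNA screen across the kinome seeking synthetic lethal partners for BYL719, cetuximab or trametinib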 (primary screen)
Cell system: human SNUC1 colorectal cancer cells
Reagents: siRNA pool against human genes
Conditions: anchor drugs BYL719 1 µM, cetuximab 5 µg/ml or trametinib 10 nM, or DMSO vehicle alone
Measured: 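Cell viability relative to a non-targeting siRNA control, replicate-averaged, as robust z-score for knock-down alone, plus a synergy score for each anchor drug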
Scale: viability z-score, siRNA alone: higher = more viable cells; low values mean essential gene
Hit rule: 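a knock-down without drug scoring a robust z under -3 counts as essential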
Meaning of the calls: active = essential: knock-down alone cut viability (z below -3); inactive = no clear viability loss with knock-down alone

BTK (Bruton tyrosine kinase) showed viability z-score, siRNA alone 0.936.
Against PFKP (phosphofructokinase, platelet) the deposit lists viability z-score, siRNA alone 0.936.
After knock-down of TRPM7, the screen gave viability z-score, siRNA alone 0.936.
After knock-down of MSR1 (macrophage scavenger receptor 1), the record shows viability z-score, siRNA alone -1.68.
Against KDR (kinase insert domain receptor) the deposit lists viability z-score, siRNA alone 0.701.
After knock-down of RSKR (ribosomal protein S6 kinase related) the results were viability z-score, siRNA alone 0.936.
With knock-down of PIK3CA, the record shows viability z-score, siRNA alone 0.936.
After knock-down of ITK (IL2 inducible T cell kinase) the results were viability z-score, siRNA alone 0.936.
CMPK1 (cytidine/uridine monophosphate kinase 1) gave viability z-score, siRNA alone 0.484.
For AKT3 (AKT serine/threonine kinase 3), the entry reads viability z-score, siRNA alone -0.524.
Against TSSK3 (testis specific serine kinase 3) the deposit lists viability z-score, siRNA alone 0.841.
Depletion of BCR (BCR activator of RhoGEF and GTPase) resulted in: viability z-score, siRNA alone -0.231.
Silencing of ROCK1 (Rho associated coiled-coil containing protein kinase 1) gave: viability z-score, siRNA alone 0.285.
Knock-down of MAST4 resulted in: viability z-score, siRNA alone 0.203.
Depletion of AK3 (adenylate kinase 3) resulted in: viability z-score, siRNA alone 0.598.
Against PIP4K2C (phosphatidylinositol-5-phosphate 4-kinase type 2 gamma), the values are viability z-score, siRNA alone -0.132.
PDGFRA (platelet derived growth factor receptor alpha) scored viability z-score, siRNA alone 0.936.
After knock-down of PRKAG2 (protein kinase AMP-activated non-catalytic subunit gamma 2) the results were viability z-score, siRNA alone 0.385.
For MERTK (MER proto-oncogene, tyrosine kinase) the deposit lists viability z-score, siRNA alone 0.936.
Depletion of EPHB3 (EPH receptor B3) came out at: viability z-score, siRNA alone 0.166.
Silencing of PRKCZ (protein kinase C zeta) gave: viability z-score, siRNA alone 0.215.
Knock-down of TTK (TTK protein kinase) gave: viability z-score, siRNA alone 0.936.
ELF3 (E74 like ETS transcription factor 3) showed viability z-score, siRNA alone 0.0882.
Against PIP4K2B (phosphatidylinositol-5-phosphate 4-kinase type 2 beta), the entry reads viability z-score, siRNA alone 0.936.
MAPK7 (mitogen-activated protein kinase 7) scored viability z-score, siRNA alone 0.538.
Silencing of PCK1 (phosphoenolpyruvate carboxykinase 1) gave: viability z-score, siRNA alone 0.936.
Depletion of SPEG (striated muscle enriched protein kinase) gave: viability z-score, siRNA alone 0.936.
After knock-down of PDIK1L (PDLIM1 interacting kinase 1 like), the record shows viability z-score, siRNA alone -0.0404.

As entered above.
For “viability z-score, siRNA alone”, PRKCZ (protein kinase C zeta) shows 0.215
Result of PCK1 (phosphoenolpyruvate carboxykinase 1) in “viability z-score, siRNA alone”: 0.936
Value for AK3 (adenylate kinase 3) in “viability z-score, siRNA alone”: 0.598
